Assay results taken from PMC9759854.
These are yes or no findings as the source states them, for the method shown. For part of these data: Binding seen in cells or lysates may run through a third protein. Some results given as binding are weak or reduced against the parent protein; the word gives no strength.

Sequences of proteins named here, by UniProt entry; tags and fusion partners are left off. A change or cut given only in a name is not applied to a line headed by its entry. A line that says so, or that is headed by a name, gives the form on record, which may keep a tag or linker. Residues count along the entry.
UniProt Q9UKV8: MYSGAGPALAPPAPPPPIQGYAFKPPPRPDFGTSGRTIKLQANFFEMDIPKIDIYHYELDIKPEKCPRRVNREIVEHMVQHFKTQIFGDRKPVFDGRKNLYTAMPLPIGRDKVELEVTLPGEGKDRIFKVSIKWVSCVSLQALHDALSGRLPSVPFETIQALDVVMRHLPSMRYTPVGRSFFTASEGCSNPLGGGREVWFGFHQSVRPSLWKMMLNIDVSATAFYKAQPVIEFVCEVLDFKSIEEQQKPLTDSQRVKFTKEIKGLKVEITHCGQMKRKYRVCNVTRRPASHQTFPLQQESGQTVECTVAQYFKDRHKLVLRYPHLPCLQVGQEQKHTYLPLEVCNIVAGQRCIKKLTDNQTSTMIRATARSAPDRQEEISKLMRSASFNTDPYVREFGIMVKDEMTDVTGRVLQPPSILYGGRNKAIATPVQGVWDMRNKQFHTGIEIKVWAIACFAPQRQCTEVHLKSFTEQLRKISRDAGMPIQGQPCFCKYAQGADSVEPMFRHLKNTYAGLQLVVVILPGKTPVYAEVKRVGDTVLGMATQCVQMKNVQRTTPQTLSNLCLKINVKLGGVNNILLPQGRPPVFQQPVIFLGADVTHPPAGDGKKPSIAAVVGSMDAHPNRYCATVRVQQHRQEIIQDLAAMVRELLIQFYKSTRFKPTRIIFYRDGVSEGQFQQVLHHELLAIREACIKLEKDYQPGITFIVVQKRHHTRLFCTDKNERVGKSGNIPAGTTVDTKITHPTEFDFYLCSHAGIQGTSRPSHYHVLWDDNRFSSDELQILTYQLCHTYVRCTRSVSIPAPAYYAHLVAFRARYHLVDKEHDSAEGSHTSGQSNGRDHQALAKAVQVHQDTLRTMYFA
pSOS AGO2-PIWI (human Argonaute 2 PIWI domain fused to hSOS): residues 517-818 of Q9UKV8
UniProt P17980: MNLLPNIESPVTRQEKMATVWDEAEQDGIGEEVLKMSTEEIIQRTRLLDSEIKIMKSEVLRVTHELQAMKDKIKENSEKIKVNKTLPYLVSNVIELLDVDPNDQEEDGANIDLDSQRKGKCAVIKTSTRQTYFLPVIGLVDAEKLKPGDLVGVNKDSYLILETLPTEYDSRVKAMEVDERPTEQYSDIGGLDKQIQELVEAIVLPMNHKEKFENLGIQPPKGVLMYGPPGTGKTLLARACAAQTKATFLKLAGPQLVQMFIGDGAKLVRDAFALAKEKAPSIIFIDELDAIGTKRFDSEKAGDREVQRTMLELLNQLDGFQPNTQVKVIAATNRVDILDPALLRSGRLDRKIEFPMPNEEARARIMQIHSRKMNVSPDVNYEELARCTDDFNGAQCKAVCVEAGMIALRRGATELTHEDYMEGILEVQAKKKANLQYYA

Key:
HA-AGO2-PIWI (human) [1] = molecular target: HA-AGO2-PIWI (human) (UniProt Q9UKV8); assay: co-IP; HeLa cells co-transfected with HA-AGO2-PIWI and Flag-PSMC3; nucleoplasmic or cytoplasmic extracts
HA-AGO2-PIWI (human) [2] = molecular target: HA-AGO2-PIWI (human) (UniProt Q9UKV8); assay: co-IP; co-IP in A549 and Huh7 cells
HA-AGO2-PIWI (human) [3] = molecular target: HA-AGO2-PIWI (human) (UniProt Q9UKV8); assay: co-IP; HeLa cells co-transfected with HA-AGO2-PIWI and Flag-PSMC3; IP with anti-HA, blot with anti-Flag and anti-HA; lysates with or without RNase A (10 mg/ml, room temperature, 30 min)
[4] = molecular target: AGO2 (endogenous, precipitated with anti-AGO2 antibody) (human (endogenous in HeLa)) (UniProt Q9UKV8); assay: co-IP; HeLa cells transfected with Flag-tagged full-length PSMC3 or deletion mutants, 48 h; lysates immunoprecipitated with anti-AGO2 antibody, blot with anti-Flag and anti-AGO2
[5] = molecular target: pSOS AGO2-PIWI (human Argonaute 2 PIWI domain fused to hSOS) (human) (UniProt Q9UKV8); assay: two-hybrid; yeast two-hybrid; pSOS-AGO2-PIWI against full-length PSMC3 or deletion mutants

Substance	binding (HA-AGO2-PIWI (human) [1])	binding (HA-AGO2-PIWI (human) [2])	binding (HA-AGO2-PIWI (human) [3])	binding [4]	binding [5]
Flag-tagged full-length PSMC3 (from UniProt P17980 1-439)	binds	binds	binds	binds	–
PSMC3 (1–214) (yeast two-hybrid construct) (from UniProt P17980 1-214) (domain or fragment)	–	–	–	–	binds
full-length PSMC3 protein (yeast two-hybrid construct) (from UniProt P17980 1-439)	–	–	–	–	binds
